Results: paper PMC10396025
Results are given in words; binding and its absence hold for the method and conditions named. In cells and extracts the contact can be indirect. Some results given as binding are weak or reduced against the parent protein; the word gives no strength.

The chains behind the UniProt entries cited, without tags or fusion partners.
UniProt P97496: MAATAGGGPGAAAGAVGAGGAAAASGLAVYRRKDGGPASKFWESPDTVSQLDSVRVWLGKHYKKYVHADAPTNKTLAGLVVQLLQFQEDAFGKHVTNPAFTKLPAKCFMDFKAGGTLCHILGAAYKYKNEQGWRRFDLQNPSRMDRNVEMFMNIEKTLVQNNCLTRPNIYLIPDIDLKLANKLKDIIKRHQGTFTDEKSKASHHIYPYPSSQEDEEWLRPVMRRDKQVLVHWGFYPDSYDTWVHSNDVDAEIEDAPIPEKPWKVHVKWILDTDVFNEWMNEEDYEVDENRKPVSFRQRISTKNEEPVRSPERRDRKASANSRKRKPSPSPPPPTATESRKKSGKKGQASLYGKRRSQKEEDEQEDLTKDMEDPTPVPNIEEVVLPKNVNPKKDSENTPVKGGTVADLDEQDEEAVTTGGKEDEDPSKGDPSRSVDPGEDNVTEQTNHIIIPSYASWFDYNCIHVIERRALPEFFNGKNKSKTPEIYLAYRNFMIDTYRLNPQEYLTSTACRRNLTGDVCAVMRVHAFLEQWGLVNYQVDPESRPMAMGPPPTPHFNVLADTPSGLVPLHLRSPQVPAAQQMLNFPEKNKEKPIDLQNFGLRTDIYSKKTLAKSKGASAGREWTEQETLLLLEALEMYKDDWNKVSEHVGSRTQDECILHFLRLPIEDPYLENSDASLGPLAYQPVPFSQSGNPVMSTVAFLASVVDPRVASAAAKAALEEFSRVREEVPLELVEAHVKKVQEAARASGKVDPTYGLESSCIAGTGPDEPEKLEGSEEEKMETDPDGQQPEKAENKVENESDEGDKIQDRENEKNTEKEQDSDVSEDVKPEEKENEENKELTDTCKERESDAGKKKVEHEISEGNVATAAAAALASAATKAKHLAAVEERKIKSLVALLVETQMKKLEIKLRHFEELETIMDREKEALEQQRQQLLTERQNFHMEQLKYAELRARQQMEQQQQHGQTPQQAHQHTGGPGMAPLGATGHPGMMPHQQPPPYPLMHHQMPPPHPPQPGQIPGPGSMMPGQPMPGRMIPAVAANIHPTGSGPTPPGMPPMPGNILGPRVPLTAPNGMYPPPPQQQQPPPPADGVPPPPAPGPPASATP
UniProt P42227: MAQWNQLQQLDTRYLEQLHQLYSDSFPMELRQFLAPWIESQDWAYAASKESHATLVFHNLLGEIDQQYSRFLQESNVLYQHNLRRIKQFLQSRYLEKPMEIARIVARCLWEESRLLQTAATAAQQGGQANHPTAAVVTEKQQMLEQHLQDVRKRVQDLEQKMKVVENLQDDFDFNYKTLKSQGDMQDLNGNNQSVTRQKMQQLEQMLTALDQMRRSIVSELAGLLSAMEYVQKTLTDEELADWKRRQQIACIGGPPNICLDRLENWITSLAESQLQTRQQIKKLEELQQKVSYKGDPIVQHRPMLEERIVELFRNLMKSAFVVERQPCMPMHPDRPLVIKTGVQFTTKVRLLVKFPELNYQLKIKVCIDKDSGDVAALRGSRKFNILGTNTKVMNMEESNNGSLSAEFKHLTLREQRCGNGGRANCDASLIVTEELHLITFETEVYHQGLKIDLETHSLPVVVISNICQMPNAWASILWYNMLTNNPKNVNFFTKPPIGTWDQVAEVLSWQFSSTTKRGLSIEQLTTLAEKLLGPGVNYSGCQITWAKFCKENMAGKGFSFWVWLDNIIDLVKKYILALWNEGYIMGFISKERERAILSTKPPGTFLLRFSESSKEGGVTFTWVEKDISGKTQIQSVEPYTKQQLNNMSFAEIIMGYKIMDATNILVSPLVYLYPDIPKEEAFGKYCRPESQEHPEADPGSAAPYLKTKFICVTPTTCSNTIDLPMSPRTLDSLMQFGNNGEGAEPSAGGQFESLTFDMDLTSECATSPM

Target: Brg1/Brm-associated factor 155 (Baf155)-His (UniProt P97496)
Assay: co-IP; C2C12 cells co-transfected with His-tagged Baf155 constructs and STAT3 constructs; lysates (Pierce Co-IP lysis buffer, sonication) precipitated with Ni-NTA agarose overnight at 4°C; washed 6 times with 20 mM Tris, 150 mM NaCl, 20 mM imidazole pH 8.0; western blot

**Q.** For “signal transducer and activator of transcription 3 (STAT3)-Flag (from UniProt P42227 1-770)”, which binding is on record?
**A.** The binding was “binds”.
